For at least one entry, the source does not settle the construct or the ends of the probe. Where cells or extracts were used, other partners may take part. No signal at the amounts used counts as a negative. Where a protein sequence is shown, tags need not be part of it.

This is an account of results in paper PMC7210984.

This series concerns the target T1, hSOX9 (human) (UniProt P48436).
T1 sequence (looked up, limits assumed): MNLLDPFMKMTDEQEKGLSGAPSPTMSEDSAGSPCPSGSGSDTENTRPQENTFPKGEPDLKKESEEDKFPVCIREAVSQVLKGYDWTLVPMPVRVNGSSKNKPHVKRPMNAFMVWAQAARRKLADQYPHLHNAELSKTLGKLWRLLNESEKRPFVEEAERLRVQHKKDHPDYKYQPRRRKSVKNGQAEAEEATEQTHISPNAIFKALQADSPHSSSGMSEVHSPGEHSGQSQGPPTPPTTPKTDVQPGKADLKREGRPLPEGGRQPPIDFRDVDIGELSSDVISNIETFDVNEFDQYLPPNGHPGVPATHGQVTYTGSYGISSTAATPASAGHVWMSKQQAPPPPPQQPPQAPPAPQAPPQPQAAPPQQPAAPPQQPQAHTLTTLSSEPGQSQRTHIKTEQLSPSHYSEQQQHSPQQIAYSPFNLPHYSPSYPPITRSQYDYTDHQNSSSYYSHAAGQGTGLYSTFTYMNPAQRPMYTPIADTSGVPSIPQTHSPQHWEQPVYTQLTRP
Put plainly: EMSA. Particulars: hSOX9 HEK293 nuclear extract, EMSA: 13 fmol labeled duplex with nuclear extract, 20 min at 25 °C, 4% acrylamide 0.5x TBE gel, binding buffer, salt and pH not given, protein in a lysate after overexpression, label: 32P 5' end (T4 PNK). (A gel shift assay detects complexes by their altered migration in electrophoresis.)

Consider “GGGATGAAAAGGCTCTTCATGTCTGCA (double strand) [mSnorc SRY5' probe]”, for which the binding result is given as “binds”.
The same measure, in the same setting: the same measure for “GGGATGCCGAGGCTCTTCATGTCTGCA (double strand) [mSnorc SRY5'mut probe]”: “no binding”.
Consider “TCTGCACAAAGGCCGTCTGTGAGCATG (double strand) [mSnorc SRY3' probe]”, for which, for the setting “additional nonspecific bands on this probe”, the binding result is “binds”.
“TCTGCACGCGGGCCGTCTGTGAGCATG (double strand) [mSnorc SRY3'mut probe]”: the binding result is “no binding”.
